Some of these results come from one statement about several compounds together. Some compounds share one range, which may span the group rather than tell each member.
Tested on: HEK - MDR1 G1199T cells
Assay: Cytotoxic drug sensitivity assay (MTS)
Type: cell-based, human

Structure (SMILES)	difference in resistance, MDR1G1199T compared to MDR1wt
CC[C@]1(O)C[C@@H]2CN(CCc3c([nH]c4ccccc34)[C@@](C(=O)OC)(c3cc4c(cc3OC)N(C)[C@H]3[C@@](O)(C(=O)OC)[C@H](OC(C)=O)[C@]5(CC)C=CCN6CC[C@]43[C@@H]65)C2)C1 [vinblastine]	2-3 fold
CC[C@]1(O)C[C@H]2CN(CCc3c([nH]c4ccccc34)[C@@](C(=O)OC)(c3cc4c(cc3OC)N(C=O)[C@H]3[C@@](O)(C(=O)OC)[C@H](OC(C)=O)[C@]5(CC)C=CCN6CC[C@]43[C@@H]65)C2)C1 [vincristine]	2-3 fold
COc1cccc2c1C(=O)c1c(O)c3c(c(O)c1C2=O)C[C@@](O)(C(=O)CO)C[C@@H]3O[C@H]1C[C@H](N)[C@H](O)[C@H](C)O1 [doxorubicin]	2-3 fold
CC(=O)O[C@H]1C(=O)[C@@]2(C)[C@H]([C@H](OC(=O)c3ccccc3)[C@]3(O)C[C@H](OC(=O)[C@H](O)[C@@H](NC(=O)c4ccccc4)c4ccccc4)C(C)=C1C3(C)C)[C@]1(OC(C)=O)CO[C@@H]1C[C@@H]2O [paclitaxel]	2-3 fold

— US7445897B2, “Sequence variants of multi-drug resistance genes, MDR1 and MRP1, and methods for assessment of drug penetration and disposition” (University of Washington, priority 2004, dated 2008)
